Results deposited as PubChem BioAssay AID1053208 (Peter MacCallum Cancer Centre, 2014).

Purpose: 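Synthetic lethal interactions between gene loss and doxorubicin in osteosarcoma cells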 (primary screen)
Cells: mouse osteosarcoma cells, early-passage culture from an engineered mouse model of fibroblastic bone tumour
Knock-down reagent: siRNA pool against mouse genes, 40 nM
Duration: about 120 h (48 h before drug, then 72 h with drug)
Challenge: doxorubicin 100 nM for 72 h, roughly 30-40% inhibitory dose
Read-out: 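Luminescent ATP signal taken as viability with or without 100 nM doxorubicin for 72 h; mean of two wells set against non-targeting siRNA and turned into robust z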
Direction: viability z-score with doxorubicin and doxorubicin viability vs non-targeting: higher = more viable cells under doxorubicin; viability z-score without drug: higher = more viable cells with knock-down alone; z-score of drug to no-drug ratio: higher = less drug sensitisation by knock-down
Active means: 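a pool counts as active when its viability z-score with doxorubicin is -2 or below and its z-score without drug lies between -2 and 2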
In all, the deposit lists about 17,000 reagents; shown is a random part of them. Of all reagents, 788 (4.7%) got an active call. 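Calls rest on z-score classes alone; an extra cut-off of viability at most 70% of control was not applied to them.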 Entries without a mark were called inactive. No sequences are given here.

gene symbol	combined z-score class	viability z-score with doxorubicin	viability z-score without drug	z-score of drug to no-drug ratio	doxorubicin viability vs non-targeting
Supt20	no change with or without drug	-0.9	-0.34	-0.67	0.86
Stat2	no change with or without drug	0	0.67	-0.34	0.94
Cxxc5	no change with or without drug	-0.22	-1.18	0.79	0.92
Dsg4	no change with or without drug	0.67	0.17	0.67	1
Or6b1	no change with or without drug	-0.79	-1.85	0.67	0.87
Cdkn3	low cell count without drug only	-0.67	-2.53	1.35	0.88
Zscan22	no change with or without drug	1.12	0.34	1.01	1.04
A330070K13Rik	no change with or without drug	-0.67	-0.51	-0.22	0.88
Ddr2	no change with or without drug	-0.56	-1.52	0.56	0.89
Cd96	no change with or without drug	0.45	0.84	0	0.98
Psmg2	low cell count with doxorubicin only (active)	-2.25	0.17	-2.36	0.74
Vmn1r58	no change with or without drug	0.34	0.34	0.22	0.97
Mpo	no change with or without drug	-0.11	0.51	-0.34	0.93
Gcg	no change with or without drug	-0.9	0.17	-0.9	0.86
Sdc2	no change with or without drug	-0.22	-0.17	0	0.92
Pdxp	no change with or without drug	-0.45	0.17	-0.45	0.9
Gabra4	no change with or without drug	0	-0.17	0.22	0.94
Kcmf1	high cell count without drug only	0	2.36	-1.35	0.94
Spidr	no change with or without drug	-0.11	0.34	-0.22	0.93
Ube2d3	no change with or without drug	-0.22	0.51	-0.45	0.92
Atp8b5	low cell count with doxorubicin only (active)	-2.14	0.34	-2.36	0.75
Ttc16	no change with or without drug	-0.22	0.17	-0.22	0.92
Armc2	no change with or without drug	0.45	1.18	-0.22	0.98
Gng7	no change with or without drug	0.9	-1.18	2.02	1.02
Pkdrej	no change with or without drug	-0.22	0	-0.11	0.92
Tsc2	high cell count without drug only	0.11	2.36	-1.24	0.95
Fnta	no change with or without drug	-1.12	0.84	-1.57	0.84
Or5a3	no change with or without drug	-0.22	-1.69	1.12	0.92
Pik3cd	no change with or without drug	-1.12	-0.17	-1.01	0.84
Tm4sf1	no change with or without drug	0.45	1.52	-0.45	0.98
Nefl	high cell count with doxorubicin only	2.14	-0.84	3.15	1.13
Lrrcc1	low cell count with doxorubicin only (active)	-4.05	-1.52	-3.48	0.58
Ralyl	high cell count with and without drug	2.02	2.36	0.56	1.12
Arhgef25	no change with or without drug	0.45	-1.52	1.8	0.98
Rab35	no change with or without drug	0	-0.17	0.22	0.94
Or2y14	no change with or without drug	-0.9	0	-0.79	0.86
Slc16a14	no change with or without drug	-1.01	-0.17	-0.9	0.85
Smarca4	no change with or without drug	-0.67	-0.67	-0.11	0.88
Slc29a3	no change with or without drug	1.12	0.34	1.01	1.04
Zfp747	no change with or without drug	0.22	0.84	-0.22	0.96
Myl3	no change with or without drug	1.35	0.34	1.24	1.06
Etd	no change with or without drug	0.34	0.51	0.11	0.97
Galnt6	no change with or without drug	0.45	-0.17	0.67	0.98
Cyp51	no change with or without drug	0.45	1.52	-0.45	0.98
Pabir1	no change with or without drug	-1.24	-0.51	-0.9	0.83
Or2a51	no change with or without drug	-0.9	-1.18	0	0.86
Fzd5	no change with or without drug	-1.24	1.35	-1.91	0.83
Lcor	no change with or without drug	1.35	0.17	1.35	1.06
Tcof1	no change with or without drug	-1.57	-1.69	-0.45	0.8
Fgf12	no change with or without drug	-0.56	0.34	-0.67	0.89

Targets listed so far whose target name starts with M or m:
gene symbol	combined z-score class	viability z-score with doxorubicin	viability z-score without drug	z-score of drug to no-drug ratio	doxorubicin viability vs non-targeting
Mpo	no change with or without drug	-0.11	0.51	-0.34	0.93
Myl3	no change with or without drug	1.35	0.34	1.24	1.06
